We go through 61 compounds from PubChem BioAssay AID445 (National Center for Advancing Translational Sciences (NCATS), 2006).

The nature of the experiment: IkB Signaling. The conditions noted are these: ABC-DLBCL IkBa-CBG/CBR dual luciferase ratio (green luciferase fused to IkBa over red control in OCI-Ly3 lymphoma cells), 4 h. Summed up: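 Luminescence ratio of IκBα-fused green versus native red beetle luciferase in OCI-Ly3 cells, 4 h post-doxycycline with compound; red signal alone, scaled from basal (0%) to zero light (-100%), flagged nonspecific or cytotoxic effects.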
Setting [1] is: measured here: control luc red channel unless noted.
[2] abbreviates: measured here: IkB-luc green channel.
Where [3] appears, read: measured here: control luc red channel.

The other results are listed elsewhere or left out. Shown are side measurements of this screen, not its main read-out; they come without a call. The list favours compounds with an active or inconclusive main result. Words in brackets tell the shape of the fitted curve; partial curves, single points and poor fits give uncertain potencies.

As to `Cc1ccc(C)c(N2CCN(CCCNC(=O)c3ccc4nc(CCc5ccccc5)oc4c3)CC2)c1`, the concentration at half-maximal activity (AC50) under setting [1] was 20 µM [falling, single point].
On the same count and under the same terms, for `COc1ccc(OC)c(NS(=O)(=O)c2ccc(N3CCCCS3(=O)=O)cc2)c1` the value was 0.0794 µM [falling, full curve, poor fit].
The same measure, in the same setting: for `Cc1ccc(C(=O)N/C(=C\c2ccc(Cl)cc2)C(=O)NC2CCCCC2)cc1` the value was 15.8 µM [falling, partial curve]; for `COc1ccc(C(=O)c2sc(Nc3ccccc3)nc2N)cc1`, 7.94 µM [falling, full curve]; for `CC(=O)c1cccc(NC(=O)CN(c2cc(C)cc(C)c2)S(=O)(=O)c2c(C)noc2C)c1`, 10 µM [falling, partial curve].
Turning to `Cc1cc(-n2ccnc(NCCc3ccc(S(N)(=O)=O)cc3)c2=O)ccc1Br`, the AC50 under setting [1] is 31.6 µM [falling, partial curve].
`COc1ccc(-c2onc(C)c2C)cc1S(=O)(=O)N(C)Cc1ccccc1`: under setting [1], the AC50 is 25.1 µM [falling, single point].
For `COc1ccc(NC(=O)c2ccco2)cc1NC(=O)c1cc(OC)c(OC)c(OC)c1`, the AC50 under setting [1] was 15.8 µM [falling, single point].
In the case of `CC(C)CCn1c(/C=C/c2ccccc2)nc2ccccc21`, the concentration at half-maximal activity (AC50) under setting [1] is 31.6 µM [falling, partial curve].
Still for that read-out and setting: as for `Cc1ccc(-c2cn3ccc(C)cc3n2)cc1`, the figure is 2.51 µM [falling, full curve]; as for `Cc1cc(C)cc(NC(=O)CSc2nc3nccnc3c(=O)n2CCc2c[nH]c3ccccc23)c1`, 0.501 µM [falling, full curve].
As for `O=C(Nc1ccccc1Cl)N1CCSc2ccccc21`, under setting [1], the half-maximal activity concentration (AC50) is 39.8 µM [rising, single point].
Same read-out and setting: for `N#Cc1nc(COc2ccc(Cl)cc2)oc1NCc1ccc2c(c1)OCO2` the value was 12.6 µM [falling, partial curve]; for `CCOC(=O)Cn1c(=O)n(C2CCCCC2)c2nc(-c3c(F)cccc3Cl)nc(C(N)=O)c21`, 25.1 µM [falling, single point].
As for `Nc1nc(Nc2ccccc2)nc2c1ncn2[C@@H]1O[C@@H](CO)[C@H](O)[C@@H]1O`, the concentration at half-maximal activity (AC50) under setting [2] is 0.0794 µM [rising, full curve] and the concentration at half-maximal activity (AC50) under setting [3] is 0.01 µM [rising, full curve].
Turning to `Oc1c(C(c2ccco2)N2CCN(C(c3ccccc3)c3ccccc3)CC2)sc2ncnn12` (centres undefined), the AC50 under setting [1] is 3.16 µM [rising, full curve] [measured here: IkB-luc green channel].
Still for that read-out and setting: as for `Cc1cccc(NC(=O)Cn2c(=O)n(CCCCCC(=O)NCc3ccc4c(c3)OCO4)c(=O)c3sccc32)c1`, the figure is 7.94 µM [falling, partial curve]; as for `CC(=O)N1C(=O)N(C)C2C1N(C(C)=O)C(=O)N2C` (centres undefined), 631 nM [rising, partial curve] [measured here: IkB-luc green channel]; as for `COC(=O)c1scc(-c2ccc(C)cc2)c1S(=O)(=O)Nc1cc(C)ccc1OC`, 20 µM [falling, partial curve, poor fit].
Take `COc1ccccc1NC(=O)c1cc2ccccc2o/c1=N\O`: the AC50 by setting is: under setting [2], 5.01 µM [rising, partial curve]; under setting [3], 39.8 µM [falling, single point].
As for `COC(=O)/C=C/S(=O)(=O)c1ccc(NC(C)=O)cc1`, the half-maximal activity concentration (AC50) was 6.31 µM [falling, full curve] under setting [2] and 3.16 µM [falling, full curve] under setting [3].
For `O=C(c1ccc2c(c1)N(Cc1ccccc1)C(=O)c1ccccc1S2(=O)=O)N1CCN(Cc2ccccc2)CC1`, the concentration at half-maximal activity (AC50) under setting [1] was 5.01 µM [falling, full curve].
Still for that read-out and setting: for `COc1cccc(-c2cnc(NCc3cc(Cl)ccc3O)n2C)c1` the value was 31.6 µM [falling, single point]; for `COc1ccc(Cn2c(=O)c3oc4ccccc4c3n(Cc3ccccc3)c2=O)cc1`, 39.8 µM [falling, single point]; for `CCOC(=O)c1[nH]c(C)c(CCC(=O)NCc2cccc(Cl)c2)c1C`, 0.2 µM [falling, full curve, poor fit].
The same measure, in the same setting: as for `O=C(CSc1c2c(nc3ccccc13)CCC2)Nc1ccc(F)cc1F`, the figure is 3.98 µM [falling, partial curve]; as for `COc1ccccc1CCNC(=O)Cc1c(C)c2c(O)cc(C)cc2oc1=O`, 20 µM [falling, partial curve].
The same measure, in the same setting: for `COC(=O)c1ccc([C@@H]2Nc3c(cccc3C(F)(F)F)[C@@H]3C=CC[C@@H]32)cc1` the value was 20 µM [falling, partial curve].
As to `O=C(O)[C@@H]1[C@H](C(=O)O)[C@H]2C(=O)C=C[C@H]1N2Cc1ccccc1`, the AC50 under setting [1] is 3.98 µM [rising, partial curve] [measured here: IkB-luc green channel].
Regarding `CCOC(=O)c1cnn(-c2sc(C(=O)OCC)c(C)c2C(=O)OCC)c1N`, the concentration at half-maximal activity (AC50) under setting [1] is 2.51 µM [falling, full curve, poor fit].
Turning to `Cc1ccccc1CN1C(=O)c2ccccc2Sc2ccc(C(=O)N3CCOCC3)cc21`, the concentration at half-maximal activity (AC50) under setting [1] is 20 µM [falling, partial curve].
As to `Cc1ccc(N2C(=O)SC(N(CC(=O)O)c3cccc(C)c3)C2=O)cc1` (centres undefined), the AC50 under setting [1] is 2 µM [falling, full curve].
Still for that read-out and setting: as for `Cc1cccc(-c2nc(-c3ccc4c(c3)[nH]c(=O)n4C)no2)c1`, the figure is 2 µM [rising, full curve]; as for `CCCN(CCC)CCCNC(=O)c1cc2c(-c3ccc(Cl)cc3)nn(C)c2s1`, 20 µM [falling, single point]; as for `CCc1cc(=O)oc2cc(C)c3c(-c4ccc(F)cc4)coc3c12`, 6.31 µM [rising, partial curve, poor fit].
Still for that read-out and setting: for `Cc1cccc(NC(=O)CSc2nc3c(oc4ccccc43)c(=O)n2-c2ccccc2)c1C` the value was 12.6 µM [falling, partial curve]; for `COc1ccccc1OCC(O)Cn1c(=N)n(Cc2ccccc2)c2ccccc21` (centres undefined), 25.1 µM [falling, partial curve].
In the case of `Cc1ccc(S(=O)(=O)N2CCC(C(=O)Nc3cc(C)ccc3C)CC2)cc1`, the half-maximal activity concentration (AC50) under setting [1] is 39.8 µM [falling, single point].
The same measure, in the same setting: for `O=C(CC(c1cccs1)N1Cc2ccccc2C1=O)Nc1ccccc1F` (centres undefined) the value was 25.1 µM [falling, single point]; for `COc1ccc(-c2nnc(SCC#N)o2)cc1`, 25.1 µM [rising, partial curve].
Still for that read-out and setting: for `Cc1ccc(CSC2=Nc3ccccc3C3=NC(CCC(=O)NCCc4ccccc4)C(=O)N23)cc1` (centres undefined) the value was 39.8 µM [falling, single point]; for `COc1ccc(-c2nc(S(=O)(=O)c3ccc(Cl)cc3)c(N3CCCCCC3)o2)cc1`, 10 µM [falling, partial curve].
On the same count and under the same terms, for `Cc1ccc(C(=O)NCCSc2c(C)[nH]c3ccccc23)cc1C` the value was 15.8 µM [falling, partial curve].
As for `Nc1nc2nc(-c3ccc(Cl)cc3)cc(C(F)(F)F)n2n1`, under setting [1], the concentration at half-maximal activity (AC50) was 5.01 µM [rising, partial curve].
The same measure, in the same setting: as for `CC(=O)N1c2ccccc2C(=O)C1N1CCN(c2cccc(C)c2C)CC1` (centres undefined), the figure is 25.1 µM [falling, partial curve]; as for `Cc1ccc(NC(=O)CSc2nc3c(c(=O)[nH]2)CN(Cc2ccccc2)CC3)cc1Cl`, 25.1 µM [falling, partial curve].
`COC(=O)c1c(NC(=O)C2c3ccccc3Oc3ccccc32)sc2c1CCC(C)C2` (centres undefined): under setting [1], the AC50 is 12.6 µM [falling, partial curve].
On to `CC(CNC(=O)c1sc2ncccc2c1-n1cccc1)c1ccccc1` (centres undefined), for which the AC50 under setting [1] was 31.6 µM [falling, single point].
Turning to `CC1(C)CC(=O)c2cc(C(=O)Nc3ccc(Cl)cc3)c(=O)[nH]c2C1`, under setting [1], the AC50 was 31.6 µM [rising, single point].
The same measure, in the same setting: for `CN1CC(=O)N(CC(=O)Nc2ccc(F)cc2)c2ccccc2C1=O` the value was 12.6 µM [falling, partial curve]; for `COc1ccc(C)cc1NC(=O)CSc1nc(=O)n(Cc2cccnc2)c2c1CCC2`, 1.26 µM [falling, full curve].
Same read-out and setting: as for `O=C(C1CCCN(S(=O)(=O)c2cccc3nonc23)C1)N1CCN(c2ccccc2F)CC1` (centres undefined), the figure is 12.6 µM [falling, partial curve]; as for `O=C(CCn1c(=O)c2cccn2c2ccc(F)cc21)NCCc1ccc(Cl)cc1`, 20 µM [falling, single point].
On to `Clc1ccc(-c2ccc(CNCCSc3nnnn3-c3ccccc3)o2)cc1`, for which, under setting [1], the AC50 is 20 µM [falling, partial curve].
The same measure, in the same setting: for `CCN1CCN(c2oc(-c3ccc(COc4ccc(OC)cc4)o3)nc2C#N)CC1` the value was 0.398 µM [falling, partial curve, poor fit]; for `COc1cc(OC)cc(C(=O)NCCn2ccc3ccccc32)c1`, 20 µM [falling, partial curve].
On the same count and under the same terms, as for `CCN(CC)S(=O)(=O)c1nnc(NC(=O)COc2ccccc2)s1`, the figure is 3.16 µM [rising, partial curve]; as for `COc1ccc(C2(CNC(=O)C(=O)Nc3ccc(C)c(Cl)c3)CCCC2)cc1OC`, 1.58 µM [rising, partial curve].
On the same count and under the same terms, as for `COc1ccc(OC)c(C(=O)CN2C(=O)N(c3cc(C)cc(C)c3)S(=O)(=O)c3ccccc32)c1`, the figure is 5.01 µM [rising, single point]; as for `O=C1c2ccccc2C(=O)N1c1nc(-c2cccs2)cs1`, 3.16 µM [falling, partial curve].
Turning to `Cc1ccc(Cl)cc1-n1c(=O)c2sc3ccccc3c2n(CC(=O)NC2CCCC2)c1=O`, the half-maximal activity concentration (AC50) under setting [1] was 39.8 µM [falling, single point].

In general, AC50 refers to the concentration at which the activity in the assay is half-maximal.
